Data as given in PubChem BioAssay AID1159578 (Peter MacCallum Cancer Centre, 2015).
Here is a random part of about 18,000 reagents. About 1,030 of them (5.7%) count as active. 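Inactive calls also include pools with fewer than 3300 nuclei, whose migration was not assessed.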 The raw values are shown without normalisation. The numbers tell different reagents against one gene apart. Not all columns of the deposit are shown.

Test: 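siRNA pools altering how lymphatic endothelial cells close a scratch wound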 (primary screen)
System: human lymphatic endothelial cells
Knock-down reagent: siRNA pool against human genes, 40 nM
Timing: 48 h after transfection
Read-out: 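High-content imaging of dye-stained cells in a scratch assay measures filled wound area and nuclei per well; duplicate means given as ratio to mock and robust z-score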
Direction: migration robust z-score: higher = faster migration into the scratch; nuclei per well: higher = more cells in the well
Rule for the call: 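Migration changed when robust z exceeds 2 or falls below -2 and mean nuclei number is at least 3300; otherwise not called changed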
Meaning of the calls: active = migration changed; inactive = no migration change, or too few cells

| Target gene | pool no. | migration robust z-score | migration class with cell-count check | nuclei per well, duplicate mean | outcome |
| --- | --- | --- | --- | --- | --- |
| ABL2 (GeneID 27) | 1 | -2.54 | under 3300 nuclei; migration not judged | 3192 | inactive |
| MUC16 (GeneID 94025) | 1 | -0.97 | migration z between -2 and 2; enough cells | 6130 | inactive |
| LACTB2 (GeneID 51110) | 1 | 1.17 | migration z between -2 and 2; enough cells | 4544 | inactive |
| MAGEA3 (GeneID 4102) | 1 | 0.26 | migration z between -2 and 2; enough cells | 6839 | inactive |
| IMPDH1 (GeneID 3614) | 1 | 0.73 | migration z between -2 and 2; enough cells | 6086 | inactive |
| TADA3 (GeneID 10474) | 1 | -2.26 | migration z below -2; enough cells | 3753 | active |
| HLA-DRB5 (GeneID 3127) | 1 | 0.02 | migration z between -2 and 2; enough cells | 4910 | inactive |
| CTNNAL1 (GeneID 8727) | 1 | 0.82 | migration z between -2 and 2; enough cells | 5780 | inactive |
| EDEM3 (GeneID 80267) | 1 | 0.05 | migration z between -2 and 2; enough cells | 5978 | inactive |
| CD99L2 (GeneID 83692) | 1 | 1.71 | migration z between -2 and 2; enough cells | 4739 | inactive |
| HLTF (GeneID 6596) | 1 | 1.46 | migration z between -2 and 2; enough cells | 5401 | inactive |
| VANGL1 (GeneID 81839) | 1 | 0.97 | migration z between -2 and 2; enough cells | 7436 | inactive |
| A1BG (GeneID 1) | 1 | 0.36 | migration z between -2 and 2; enough cells | 5170 | inactive |
| PON2 (GeneID 5445) | 1 | -0.34 | migration z between -2 and 2; enough cells | 4794 | inactive |
| IFI6 (GeneID 2537) | 1 | -1.1 | migration z between -2 and 2; enough cells | 5560 | inactive |
| NOTCH2NLA (GeneID 388677) | 1 | -0.58 | migration z between -2 and 2; enough cells | 5433 | inactive |
| RNF217 (GeneID 154214) | 1 | 0.54 | migration z between -2 and 2; enough cells | 5754 | inactive |
| MIMS2 (GeneID 116151) | 1 | -0.26 | migration z between -2 and 2; enough cells | 5310 | inactive |
| RIC8B (GeneID 55188) | 1 | -0.39 | migration z between -2 and 2; enough cells | 5970 | inactive |
| ARHGAP11B (GeneID 89839) | 1 | -1.32 | migration z between -2 and 2; enough cells | 5013 | inactive |
| CLNK (GeneID 116449) | 1 | 0.28 | migration z between -2 and 2; enough cells | 5558 | inactive |
| MST1R (GeneID 4486) | 1 | -2.04 | migration z below -2; enough cells | 6277 | active |
| VSIG8 (GeneID 391123) | 1 | 2.17 | migration z above 2; enough cells | 6190 | active |
| CSTB (GeneID 1476) | 1 | 0.18 | migration z between -2 and 2; enough cells | 5636 | inactive |
| TCF19 (GeneID 6941) | 1 | -2.42 | migration z below -2; enough cells | 3562 | active |
| SUSD2 (GeneID 56241) | 1 | 1.8 | migration z between -2 and 2; enough cells | 6310 | inactive |
| RDH14 (GeneID 57665) | 1 | -1.79 | migration z between -2 and 2; enough cells | 4193 | inactive |
| SETX (GeneID 23064) | 1 | 0.38 | migration z between -2 and 2; enough cells | 6132 | inactive |
| UCN3 (GeneID 114131) | 1 | -0.82 | migration z between -2 and 2; enough cells | 5502 | inactive |
| BRWD3 (GeneID 254065) | 1 | -1.78 | migration z between -2 and 2; enough cells | 5914 | inactive |
| CFHR4 (GeneID 10877) | 1 | 0.67 | migration z between -2 and 2; enough cells | 6942 | inactive |
| GPR101 (GeneID 83550) | 1 | 0.86 | migration z between -2 and 2; enough cells | 6372 | inactive |
| NPR3 (GeneID 4883) | 1 | 0.98 | migration z between -2 and 2; enough cells | 6164 | inactive |
| NPR3 (GeneID 4883) | 2 | 0.3 | migration z between -2 and 2; enough cells | 5436 | inactive |
| PGM1 (GeneID 5236) | 1 | 0.02 | migration z between -2 and 2; enough cells | 6252 | inactive |
| RSPH6A (GeneID 81492) | 1 | 1.94 | migration z between -2 and 2; enough cells | 6953 | inactive |
| CACNA2D1 (GeneID 781) | 1 | -2.3 | migration z below -2; enough cells | 4483 | active |
| ANKRD29 (GeneID 147463) | 1 | -0.71 | migration z between -2 and 2; enough cells | 6872 | inactive |
| UNC5D (GeneID 137970) | 1 | -0.3 | migration z between -2 and 2; enough cells | 6515 | inactive |
| OR52A4P (GeneID 390053) | 1 | 1.9 | migration z between -2 and 2; enough cells | 5670 | inactive |
| MAGI2 (GeneID 9863) | 1 | 0.65 | migration z between -2 and 2; enough cells | 5403 | inactive |
| PPM1B (GeneID 5495) | 1 | 0.11 | migration z between -2 and 2; enough cells | 5722 | inactive |
| ACP5 (GeneID 54) | 1 | -0.91 | migration z between -2 and 2; enough cells | 4888 | inactive |
| UBE2A (GeneID 7319) | 1 | 1.5 | migration z between -2 and 2; enough cells | 4792 | inactive |
| KRT7 (GeneID 3855) | 1 | -0.15 | migration z between -2 and 2; enough cells | 6102 | inactive |
| HEATR5B (GeneID 54497) | 1 | -1.08 | migration z between -2 and 2; enough cells | 6712 | inactive |
| C8orf34 (GeneID 116328) | 1 | -2.25 | migration z below -2; enough cells | 3824 | active |
| LNPEP (GeneID 4012) | 1 | 0.88 | migration z between -2 and 2; enough cells | 4888 | inactive |
| TRIM43B (GeneID 653192) | 1 | 0.39 | migration z between -2 and 2; enough cells | 5795 | inactive |
| NUDT10 (GeneID 170685) | 1 | 0.88 | migration z between -2 and 2; enough cells | 5176 | inactive |
| OR56A3 (GeneID 390083) | 1 | 1.22 | migration z between -2 and 2; enough cells | 7073 | inactive |
| TLX2 (GeneID 3196) | 1 | -0.88 | migration z between -2 and 2; enough cells | 5763 | inactive |
| DMRT3 (GeneID 58524) | 1 | 0.7 | migration z between -2 and 2; enough cells | 4638 | inactive |
| NODAL (GeneID 4838) | 1 | -4.53 | migration z below -2; enough cells | 4152 | active |
| KAT8 (GeneID 84148) | 1 | -1.27 | migration z between -2 and 2; enough cells | 4123 | inactive |
| NOP9 (GeneID 161424) | 1 | 0.67 | migration z between -2 and 2; enough cells | 7014 | inactive |
| ZNF490 (GeneID 57474) | 1 | -0.9 | migration z between -2 and 2; enough cells | 6621 | inactive |
| RBM42 (GeneID 79171) | 1 | -0.7 | migration z between -2 and 2; enough cells | 6158 | inactive |
| MAGEC2 (GeneID 51438) | 1 | -0.34 | migration z between -2 and 2; enough cells | 6118 | inactive |
| ALDH7A1 (GeneID 501) | 1 | 0.98 | migration z between -2 and 2; enough cells | 5752 | inactive |
| H2BC13 (GeneID 8340) | 1 | -0.01 | migration z between -2 and 2; enough cells | 4864 | inactive |
| RNF38 (GeneID 152006) | 1 | 0.26 | migration z between -2 and 2; enough cells | 5399 | inactive |
| NUAK2 (GeneID 81788) | 1 | -2.1 | migration z below -2; enough cells | 3606 | active |
| CYP11A1 (GeneID 1583) | 1 | -0.64 | migration z between -2 and 2; enough cells | 5862 | inactive |
| DCSTAMP (GeneID 81501) | 1 | 0.97 | migration z between -2 and 2; enough cells | 6168 | inactive |
| MAPK11 (GeneID 5600) | 1 | -4.04 | migration z below -2; enough cells | 4259 | active |
| CERS4 (GeneID 79603) | 1 | -1.55 | migration z between -2 and 2; enough cells | 5115 | inactive |
| CCDC85A (GeneID 114800) | 1 | -0.12 | migration z between -2 and 2; enough cells | 5924 | inactive |
| TEF (GeneID 7008) | 1 | -2.25 | under 3300 nuclei; migration not judged | 3038 | inactive |
| RCVRN (GeneID 5957) | 1 | 0.32 | migration z between -2 and 2; enough cells | 6586 | inactive |
| FOXA2 (GeneID 3170) | 1 | 0.57 | migration z between -2 and 2; enough cells | 6796 | inactive |
| RBM8A (GeneID 9939) | 1 | -0.32 | migration z between -2 and 2; enough cells | 4776 | inactive |
| CYP1A1 (GeneID 1543) | 1 | -2.67 | migration z below -2; enough cells | 5638 | active |

Single entries from above:
ANKRD29 (GeneID 147463), migration class with cell-count check: migration z between -2 and 2; enough cells
CSTB (GeneID 1476), outcome: inactive
EDEM3 (GeneID 80267), migration robust z-score = 0.05
UNC5D (GeneID 137970), migration class with cell-count check: migration z between -2 and 2; enough cells
Result of BRWD3 (GeneID 254065) under “migration class with cell-count check”: migration z between -2 and 2; enough cells
Entry of CERS4 (GeneID 79603) in “outcome”: inactive
